According to the supplement of paper PMC10849652:
Some of the results follow.

By UniProt entry, the sequences of proteins in these tests, tags left out. Where a name states a change or a piece, a line headed by the entry shows the natural chain unless it says otherwise.
UniProt Q8NDV3: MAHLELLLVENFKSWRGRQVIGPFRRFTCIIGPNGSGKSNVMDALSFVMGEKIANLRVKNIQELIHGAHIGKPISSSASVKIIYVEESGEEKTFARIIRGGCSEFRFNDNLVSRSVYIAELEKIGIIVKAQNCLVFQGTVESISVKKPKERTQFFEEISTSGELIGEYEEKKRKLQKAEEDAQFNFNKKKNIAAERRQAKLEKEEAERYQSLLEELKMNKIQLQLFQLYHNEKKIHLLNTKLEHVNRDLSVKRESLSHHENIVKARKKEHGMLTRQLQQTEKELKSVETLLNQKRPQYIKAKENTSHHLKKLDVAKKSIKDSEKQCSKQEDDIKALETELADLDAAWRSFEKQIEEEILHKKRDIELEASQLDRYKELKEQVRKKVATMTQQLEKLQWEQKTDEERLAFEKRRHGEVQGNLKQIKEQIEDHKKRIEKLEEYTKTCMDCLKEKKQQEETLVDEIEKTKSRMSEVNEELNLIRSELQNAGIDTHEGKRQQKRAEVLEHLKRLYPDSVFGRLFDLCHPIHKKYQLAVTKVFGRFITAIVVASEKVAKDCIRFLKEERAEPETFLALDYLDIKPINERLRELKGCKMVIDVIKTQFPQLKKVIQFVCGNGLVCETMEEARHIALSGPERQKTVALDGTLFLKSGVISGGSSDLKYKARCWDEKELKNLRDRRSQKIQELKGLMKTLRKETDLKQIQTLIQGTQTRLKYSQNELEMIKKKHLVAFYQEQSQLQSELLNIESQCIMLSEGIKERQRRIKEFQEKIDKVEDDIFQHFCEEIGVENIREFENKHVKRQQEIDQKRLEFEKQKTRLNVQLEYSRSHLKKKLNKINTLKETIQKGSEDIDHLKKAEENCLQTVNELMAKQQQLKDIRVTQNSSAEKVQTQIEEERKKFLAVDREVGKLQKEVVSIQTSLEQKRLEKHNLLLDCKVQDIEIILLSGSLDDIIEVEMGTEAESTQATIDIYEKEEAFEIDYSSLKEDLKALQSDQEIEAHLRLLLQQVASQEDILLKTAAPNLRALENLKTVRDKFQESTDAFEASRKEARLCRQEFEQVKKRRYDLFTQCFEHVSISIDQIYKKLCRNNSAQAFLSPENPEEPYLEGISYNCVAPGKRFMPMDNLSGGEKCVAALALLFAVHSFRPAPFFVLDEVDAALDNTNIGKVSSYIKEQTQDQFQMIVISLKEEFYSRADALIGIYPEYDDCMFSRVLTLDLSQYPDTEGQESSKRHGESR
UniProt O95149, whole entry, looked up: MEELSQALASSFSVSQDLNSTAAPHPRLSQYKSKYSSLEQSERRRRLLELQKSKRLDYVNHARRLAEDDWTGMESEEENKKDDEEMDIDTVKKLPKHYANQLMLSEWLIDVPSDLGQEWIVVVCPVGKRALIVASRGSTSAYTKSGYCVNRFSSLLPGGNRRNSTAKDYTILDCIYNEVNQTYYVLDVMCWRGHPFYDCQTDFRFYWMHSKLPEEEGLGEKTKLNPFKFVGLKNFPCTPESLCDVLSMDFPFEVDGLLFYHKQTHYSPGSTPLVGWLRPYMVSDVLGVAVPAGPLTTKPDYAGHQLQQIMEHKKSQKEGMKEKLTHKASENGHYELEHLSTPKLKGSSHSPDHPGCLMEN
UniProt Q8WVI0: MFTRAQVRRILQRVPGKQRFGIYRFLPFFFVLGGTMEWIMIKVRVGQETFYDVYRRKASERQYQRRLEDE
UniProt P23497: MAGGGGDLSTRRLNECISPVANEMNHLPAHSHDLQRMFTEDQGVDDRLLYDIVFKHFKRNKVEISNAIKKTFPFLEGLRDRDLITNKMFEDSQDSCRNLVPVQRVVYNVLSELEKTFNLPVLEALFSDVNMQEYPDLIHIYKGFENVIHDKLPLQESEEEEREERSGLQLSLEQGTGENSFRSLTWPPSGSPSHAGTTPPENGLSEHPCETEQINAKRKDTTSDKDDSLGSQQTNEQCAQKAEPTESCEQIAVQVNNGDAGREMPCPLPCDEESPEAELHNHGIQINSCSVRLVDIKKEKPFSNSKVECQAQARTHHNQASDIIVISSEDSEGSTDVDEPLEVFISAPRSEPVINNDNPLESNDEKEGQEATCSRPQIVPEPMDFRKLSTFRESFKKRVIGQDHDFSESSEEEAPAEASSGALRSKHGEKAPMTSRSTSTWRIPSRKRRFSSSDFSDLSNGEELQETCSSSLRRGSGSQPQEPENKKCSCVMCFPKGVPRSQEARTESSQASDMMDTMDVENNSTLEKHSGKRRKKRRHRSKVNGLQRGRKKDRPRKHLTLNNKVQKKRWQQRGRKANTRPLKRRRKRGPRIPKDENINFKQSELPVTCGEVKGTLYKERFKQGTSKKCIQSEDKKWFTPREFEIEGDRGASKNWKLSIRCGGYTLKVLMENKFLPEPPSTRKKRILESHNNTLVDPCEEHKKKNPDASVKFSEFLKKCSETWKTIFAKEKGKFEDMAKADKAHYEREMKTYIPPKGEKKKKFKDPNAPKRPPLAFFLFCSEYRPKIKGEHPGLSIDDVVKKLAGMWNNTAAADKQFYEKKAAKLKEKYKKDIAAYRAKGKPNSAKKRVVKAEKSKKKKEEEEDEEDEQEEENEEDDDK
UniProt P35711: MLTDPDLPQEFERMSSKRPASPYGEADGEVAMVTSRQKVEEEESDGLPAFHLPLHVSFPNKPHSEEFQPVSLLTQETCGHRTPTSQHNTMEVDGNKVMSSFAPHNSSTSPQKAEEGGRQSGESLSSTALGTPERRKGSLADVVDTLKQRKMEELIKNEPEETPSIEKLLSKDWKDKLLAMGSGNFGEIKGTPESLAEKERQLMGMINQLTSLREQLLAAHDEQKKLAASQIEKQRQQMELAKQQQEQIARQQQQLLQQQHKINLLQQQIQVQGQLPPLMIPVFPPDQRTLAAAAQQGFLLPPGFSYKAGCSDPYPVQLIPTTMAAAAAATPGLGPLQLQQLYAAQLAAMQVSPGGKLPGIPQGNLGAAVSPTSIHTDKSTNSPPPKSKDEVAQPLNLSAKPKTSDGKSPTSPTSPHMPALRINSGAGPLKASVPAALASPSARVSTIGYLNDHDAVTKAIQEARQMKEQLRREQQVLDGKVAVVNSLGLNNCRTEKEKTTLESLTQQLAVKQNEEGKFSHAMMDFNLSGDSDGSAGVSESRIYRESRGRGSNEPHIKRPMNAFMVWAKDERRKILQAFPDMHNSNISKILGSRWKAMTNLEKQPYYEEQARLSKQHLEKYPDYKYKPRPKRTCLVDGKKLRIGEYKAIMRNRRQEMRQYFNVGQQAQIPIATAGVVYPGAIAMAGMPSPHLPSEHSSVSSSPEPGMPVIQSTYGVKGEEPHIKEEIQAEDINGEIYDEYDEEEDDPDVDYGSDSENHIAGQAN
UniProt P62306, whole entry, looked up: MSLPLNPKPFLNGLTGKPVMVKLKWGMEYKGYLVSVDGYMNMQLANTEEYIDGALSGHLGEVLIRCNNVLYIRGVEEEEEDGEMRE
UniProt Q9Y5W9: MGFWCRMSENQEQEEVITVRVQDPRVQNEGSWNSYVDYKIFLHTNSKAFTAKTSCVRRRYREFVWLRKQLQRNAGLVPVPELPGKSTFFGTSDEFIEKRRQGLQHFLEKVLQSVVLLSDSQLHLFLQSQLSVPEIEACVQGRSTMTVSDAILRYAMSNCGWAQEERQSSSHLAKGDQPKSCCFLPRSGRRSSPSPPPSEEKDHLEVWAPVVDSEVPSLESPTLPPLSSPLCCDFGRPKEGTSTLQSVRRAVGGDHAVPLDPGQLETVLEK
UniProt Q9Y5X2: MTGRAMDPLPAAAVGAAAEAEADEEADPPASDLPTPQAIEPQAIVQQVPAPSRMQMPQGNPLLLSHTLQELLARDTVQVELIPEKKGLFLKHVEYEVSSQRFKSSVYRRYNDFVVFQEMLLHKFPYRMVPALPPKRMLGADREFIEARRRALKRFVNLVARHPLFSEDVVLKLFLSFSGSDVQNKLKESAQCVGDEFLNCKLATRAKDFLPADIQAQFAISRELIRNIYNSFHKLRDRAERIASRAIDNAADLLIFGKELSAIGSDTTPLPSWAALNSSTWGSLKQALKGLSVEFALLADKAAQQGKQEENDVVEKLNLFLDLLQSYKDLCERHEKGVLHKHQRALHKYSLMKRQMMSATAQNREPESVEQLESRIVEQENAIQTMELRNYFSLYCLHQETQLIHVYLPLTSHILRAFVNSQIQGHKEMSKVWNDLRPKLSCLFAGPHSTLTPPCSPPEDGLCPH
UniProt Q8TAQ2, whole entry, looked up: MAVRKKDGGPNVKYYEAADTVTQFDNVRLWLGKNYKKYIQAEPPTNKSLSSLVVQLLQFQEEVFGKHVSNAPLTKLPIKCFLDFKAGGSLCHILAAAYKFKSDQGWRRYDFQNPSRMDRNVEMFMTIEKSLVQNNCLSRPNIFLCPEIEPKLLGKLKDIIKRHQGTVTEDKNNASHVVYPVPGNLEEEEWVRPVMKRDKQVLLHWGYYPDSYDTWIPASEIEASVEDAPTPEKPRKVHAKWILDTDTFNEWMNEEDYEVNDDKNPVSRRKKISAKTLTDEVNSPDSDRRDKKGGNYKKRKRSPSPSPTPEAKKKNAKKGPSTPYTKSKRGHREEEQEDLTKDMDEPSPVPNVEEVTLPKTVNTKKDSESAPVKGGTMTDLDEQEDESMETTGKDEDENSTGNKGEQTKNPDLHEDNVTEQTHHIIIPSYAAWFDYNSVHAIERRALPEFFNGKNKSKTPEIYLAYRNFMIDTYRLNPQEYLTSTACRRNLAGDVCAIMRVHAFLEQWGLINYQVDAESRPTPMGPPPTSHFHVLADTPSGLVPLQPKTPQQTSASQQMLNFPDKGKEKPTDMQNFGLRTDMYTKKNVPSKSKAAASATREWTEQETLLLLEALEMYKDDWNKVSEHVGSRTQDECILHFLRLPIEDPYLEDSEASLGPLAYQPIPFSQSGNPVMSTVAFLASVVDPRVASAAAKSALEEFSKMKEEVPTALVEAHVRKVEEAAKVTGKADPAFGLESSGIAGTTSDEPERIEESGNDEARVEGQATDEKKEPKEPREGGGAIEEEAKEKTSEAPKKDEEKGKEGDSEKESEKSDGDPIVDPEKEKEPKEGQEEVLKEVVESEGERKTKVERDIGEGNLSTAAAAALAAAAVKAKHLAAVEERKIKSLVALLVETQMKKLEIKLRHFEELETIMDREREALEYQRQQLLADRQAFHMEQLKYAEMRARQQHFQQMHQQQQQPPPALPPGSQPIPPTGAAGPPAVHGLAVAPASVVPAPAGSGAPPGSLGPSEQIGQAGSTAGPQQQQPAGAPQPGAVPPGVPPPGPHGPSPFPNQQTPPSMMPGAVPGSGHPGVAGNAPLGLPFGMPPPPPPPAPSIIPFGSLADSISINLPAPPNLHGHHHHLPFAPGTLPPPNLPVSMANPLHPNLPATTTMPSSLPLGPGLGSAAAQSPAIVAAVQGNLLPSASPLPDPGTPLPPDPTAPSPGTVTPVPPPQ
UniProt P62318, whole entry, looked up: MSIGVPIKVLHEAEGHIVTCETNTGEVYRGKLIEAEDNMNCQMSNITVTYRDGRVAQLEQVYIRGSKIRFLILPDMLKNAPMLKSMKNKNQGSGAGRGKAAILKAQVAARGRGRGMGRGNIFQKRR
UniProt Q96SB8: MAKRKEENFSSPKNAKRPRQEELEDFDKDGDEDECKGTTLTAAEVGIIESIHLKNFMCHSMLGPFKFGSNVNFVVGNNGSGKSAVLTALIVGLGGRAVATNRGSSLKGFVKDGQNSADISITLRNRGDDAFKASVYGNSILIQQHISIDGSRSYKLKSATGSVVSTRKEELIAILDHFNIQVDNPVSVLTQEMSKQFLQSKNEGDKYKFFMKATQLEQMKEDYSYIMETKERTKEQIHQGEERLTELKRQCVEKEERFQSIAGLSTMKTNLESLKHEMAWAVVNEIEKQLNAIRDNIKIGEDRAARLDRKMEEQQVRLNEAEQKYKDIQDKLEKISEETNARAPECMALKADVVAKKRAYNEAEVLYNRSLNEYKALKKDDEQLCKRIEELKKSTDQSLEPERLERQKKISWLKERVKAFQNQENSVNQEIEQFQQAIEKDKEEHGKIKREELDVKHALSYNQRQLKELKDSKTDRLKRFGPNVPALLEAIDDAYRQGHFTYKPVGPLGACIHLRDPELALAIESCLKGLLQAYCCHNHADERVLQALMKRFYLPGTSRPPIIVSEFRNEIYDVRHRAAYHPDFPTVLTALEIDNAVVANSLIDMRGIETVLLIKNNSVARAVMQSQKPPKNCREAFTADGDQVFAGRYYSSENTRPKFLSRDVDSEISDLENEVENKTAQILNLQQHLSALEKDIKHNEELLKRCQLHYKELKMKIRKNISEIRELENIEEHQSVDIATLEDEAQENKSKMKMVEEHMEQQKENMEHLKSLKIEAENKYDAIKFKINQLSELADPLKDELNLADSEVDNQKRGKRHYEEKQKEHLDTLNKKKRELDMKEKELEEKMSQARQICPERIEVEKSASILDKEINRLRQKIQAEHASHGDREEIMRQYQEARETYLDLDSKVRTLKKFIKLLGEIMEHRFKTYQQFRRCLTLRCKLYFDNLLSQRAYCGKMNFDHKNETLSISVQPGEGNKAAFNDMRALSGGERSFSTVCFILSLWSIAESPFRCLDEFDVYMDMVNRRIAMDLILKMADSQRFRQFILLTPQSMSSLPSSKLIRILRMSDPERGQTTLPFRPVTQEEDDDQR

What follows are targets tested with Cc1sc2c(c1C)C(c1ccc(Cl)cc1)=N[C@@H](CC(=O)OC(C)(C)C)c1nnc(C)n1-2 (assay: log2 fold change, soluble protein after heating vs DMSO (PISA); higher = thermal stabilisation; K562 cells, 10 uM, 30 min; active = over 0.2 and 3.5 SD of the protein, either way, in both replicates (recomputed)).
Summary of the method: (§1)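 Soluble protein was defined as the supernatant after 21,000xg for 90 min. It came from K562 cells at 2×10^6 cells/mL given 10 μM compound for 30 min, heated in aliquots for 3 min across 48°C-58°C, pooled, and extracted in PBS with 0.5% NP-40 at 4°C, and was quantified by TMTpro 16plex LC-MS/MS with equalised channel sums. Thermal stability against control samples, from duplicates, is reported as log2 fold change.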

Target | log2 fold change
SNRPG (UniProt P62308) | inactive: 0.099
SMC1B isoform 3 (UniProt Q8NDV3) | inactive: 0.021
SNUPN (UniProt O95149) | inactive: 0.03
SNRPD1 (UniProt P62314) | inactive: 0.071
SMAP (UniProt O00193) | inactive: -0.039
SMIM4 (UniProt Q8WVI0) | inactive: -0.064
SP100 isoform 4 (UniProt P23497) | inactive: 0
SMARCA5 (UniProt O60264) | inactive: -0.026
SOX7 isoform 2 (UniProt Q9BT81) | inactive: 0.181
SNCA (UniProt P37840) | inactive: -0.046
SMS (UniProt P52788) | inactive: -0.007
SMIM12 (UniProt Q96EX1) | inactive: -0.15
SOX5 (UniProt P35711) | inactive: -0.018
SNRNP200 (UniProt O75643) | inactive: 0.084
SNX1 (UniProt Q13596) | inactive: -0.003
SNX6 (UniProt Q9UNH7) | inactive: 0.012
SLC7A6 (UniProt Q92536) | inactive: 0.012
SMNDC1 (UniProt O75940) | inactive: 0.047
SNRPF (UniProt P62306) | inactive: 0.109

Target | log2 fold change
SNX11 (UniProt Q9Y5W9) | inactive: 0.057
SMPD4 isoform 4 (UniProt Q9NXE4) | inactive: -0.034
SNX2 (UniProt O60749) | inactive: -0.026
SLK isoform 2 (UniProt Q9H2G2) | inactive: 0.021
SMG7 isoform 4 (UniProt Q92540) | inactive: 0.022
SNW1 (UniProt Q13573) | inactive: 0.055
SNX8 (UniProt Q9Y5X2) | inactive: -0.021
SMCHD1 (UniProt A6NHR9) | inactive: 0.01
SMG9 (UniProt Q9H0W8) | inactive: 0.044
SMYD3 (UniProt Q9H7B4) | inactive: -0.085
SNTB2 (UniProt Q13425) | inactive: -0.039
SMARCC2 (UniProt Q8TAQ2) | inactive: -0.018
SPAG5 (UniProt Q96R06) | inactive: 0.18
SMAD5 (UniProt Q99717) | inactive: -0.064
SOAT1 (UniProt P35610) | active: 0.802
SNRPD3 (UniProt P62318) | inactive: 0.106
SMC6 isoform 2 (UniProt Q96SB8) | inactive: 0.042
SMC5 (UniProt Q8IY18) | inactive: -0.028
SORBS1 isoform 12 (UniProt Q9BX66) | inactive: 0.019

What follows are targets tested with c1ccc([C@@H]2C[C@H]2NC2CCNCC2)cc1 in the same assay as above.
Summary of the method: as §1

Target | log2 fold change
SNRPG (UniProt P62308) | inactive: 0.059
SMC1B isoform 3 (UniProt Q8NDV3) | inactive: 0.058
SNUPN (UniProt O95149) | inactive: 0.021
SNRPD1 (UniProt P62314) | inactive: 0.049
SMAP (UniProt O00193) | inactive: 0.003
SMIM4 (UniProt Q8WVI0) | inactive: 0.198
SP100 isoform 4 (UniProt P23497) | inactive: 0.024
SMARCA5 (UniProt O60264) | inactive: -0.006
SOX7 isoform 2 (UniProt Q9BT81) | inactive: 0.03
SNCA (UniProt P37840) | inactive: 0.007
SMS (UniProt P52788) | inactive: 0.023
SMIM12 (UniProt Q96EX1) | inactive: -0.055
SOX5 (UniProt P35711) | inactive: -0.022
SNRNP200 (UniProt O75643) | inactive: 0.032
SNX1 (UniProt Q13596) | inactive: -0.07
SNX6 (UniProt Q9UNH7) | inactive: -0.11
SLC7A6 (UniProt Q92536) | inactive: 0.06
SMNDC1 (UniProt O75940) | inactive: 0.044
SNRPF (UniProt P62306) | inactive: 0.098

Target | log2 fold change
SNX11 (UniProt Q9Y5W9) | inactive: -0.027
SMPD4 isoform 4 (UniProt Q9NXE4) | inactive: -0.104
SNX2 (UniProt O60749) | inactive: -0.079
SLK isoform 2 (UniProt Q9H2G2) | inactive: -0.005
SMG7 isoform 4 (UniProt Q92540) | inactive: 0.022
SNW1 (UniProt Q13573) | inactive: -0.035
SNX8 (UniProt Q9Y5X2) | inactive: 0.066
SMCHD1 (UniProt A6NHR9) | inactive: 0.036
SMG9 (UniProt Q9H0W8) | inactive: -0.071
SMYD3 (UniProt Q9H7B4) | inactive: -0.355
SNTB2 (UniProt Q13425) | inactive: 0.041
SMARCC2 (UniProt Q8TAQ2) | inactive: -0.072
SPAG5 (UniProt Q96R06) | inactive: -0.083
SMAD5 (UniProt Q99717) | inactive: 0.018
SOAT1 (UniProt P35610) | inactive: 0.001
SNRPD3 (UniProt P62318) | inactive: 0.036
SMC6 isoform 2 (UniProt Q96SB8) | inactive: 0.002
SMC5 (UniProt Q8IY18) | inactive: -0.005
SORBS1 isoform 12 (UniProt Q9BX66) | inactive: -0.014
